According to US11534434B2 (Karuna Therapeutics, Inc., priority 2019, dated 2022):
Some entries share one result that the patent states for a list of compounds.

Test: Pharmacokinetics following single oral dose administration in male Sprague-Dawley rats
Type: in vivo
Conditions: rat
Procedure: In-Vivo Assessment of Pharmacokinetics Following Oral Dose Administration in Male Sprague-Dawley Rats
Blood samples were collected from all animals in Groups 1-3 at 0.25, 0.5, 1, 2, 4, 6, 8, 12, and 24 hours post-dose, with each animal, bled at all time points. […] The slopes of the elimination phase of the concentrations vs. time curve used to calculate the T1/2 were determined by log-linear regression.
PK analyses were performed and validated using Phoenix® WinNonlin® version 8.0.

Row | Compound | time of mean peak plasma concentration post-dose
1 | CCCCCCOc1nsnc1C1=CCCN(C)C1 [Xanomeline, 3-(hexyloxy)-4-(1-methyl-1,2,5,6-tetrahydropyridin-3-yl)-1,2,5-thiadiazole, reference compound] | ≤ 30 min
2 | [2H]C([2H])([2H])C([2H])([2H])C([2H])([2H])C([2H])([2H])C([2H])([2H])C([2H])([2H])Oc1nsnc1C1=CCCN(C)C1 [Xanomeline-d13, 3-((Hexyl-1,1,2,2,3,3,4,4,5,5,6,6,6-d13)oxy)-4-(1-methyl-1,2,5,6-tetrahydropyridin-3-yl)-1,2,5-thiadiazole] | ≤ 30 min
3 | [2H]C([2H])([2H])N1CCC=C(c2nsnc2OC([2H])([2H])C([2H])([2H])C([2H])([2H])C([2H])([2H])C([2H])([2H])C([2H])([2H])[2H])C1 [Xanomeline-d16, 3-((hexyl-1,1,2,2,3,3,4,4,5,5,6,6,6-d13)oxy)-4-(1-(methyl-d3)-1,2,5,6-tetrahydropyridin-3-yl)-1,2,5-thiadiazole] | ≤ 30 min
